Values quoted from earlier work in patent US20100273275A1, “Methods of determining levels of steroid fractions utilizing SHBG calculations” (priority 2005, published 2010).
Some entries share one result that the patent states for a list of compounds.

System: plasma proteins
Settings: bound to SHBG and albumin; background statement

Structure (SMILES): C[C@]12CC[C@H]3[C@@H](CCC4=CC(=O)CC[C@@]43C)[C@@H]1CC[C@@H]2O [Testosterone]
- circulating steroid bound to plasma proteins: Greater than 97%
